The results in this text go back to US9511045B2, “Use of riluzole for treating or preventing the adverse effects of antineoplastic agents” (UNIVERSITE D'AUVERGNE CLERMONT I, priority 2010, dated 2016).

Each structure is given as a SMILES string. “Also recorded” adds a separate entry of the source. Read-outs that look alike come from different tables or passages of the source.

The test system of the assay is Male Sprague-Dawley rats. Particulars: for statistical data analysis of reaction times versus control: FIG. 1, FIG. 2. As to the method:
Male Sprague-Dawley rats (Charles River Lab, France), weighing 175 to 200 grams, were placed in a cage with food and water ad libitum, in a temperature-controlled environment at 22° C. with a 12 h/12 h day/night cycle. The experiments were conducted under blind conditions in a calm room by the same experimenter, while taking care to comply with the regulations on animal experimentation.
This low-temperature immersion test made it possible to measure the hypersensitivity to cold in the animals. The bottom third of the rat's tail was immersed in a temperature-controlled bath 10° C. until it was removed or until the “cut-off” set at 30 seconds (Necker and Hellon. 1978 Pain. 4: 231-242).
The experimental data was analyzed using the software program Sigma STAT, version 3.0 for Windows (STAT32 Software Inc., San Diego, Calif.). The kinetics of the reaction times to the temperature-based stimulation were analyzed using a two-factor variance analysis followed by a multiple comparison test to study the change over time. […] The significance threshold was P<0.05.

In the case of `Nc1nc2ccc(OC(F)(F)F)cc2s1` [riluzole, 2-amino-6-trifluoro-methoxy-benzothiazole], the “reaction time to cold compared with that observed before injection of oxaliplatin” value (oxaliplatin animals treated with riluzole) is “higher reaction time to cold (less sensitivity)”. Besides, where the note is “rat animal model”, the “effect on oxaliplatin-induced cold hypersensitivity” value is recorded as “capable of correcting hypersensitivity to cold; also recorded: corrected the oxaliplatin-induced cold hypersensitivity”. In addition, the “statistical data analysis of reaction times versus control” value runs as follows: (riluzole 5 mg/kg, p<0.05) “significant differences”; (riluzole 7.5 mg/kg, p<0.001) “significant differences”. For the same compound, under “riluzole 5 mg/kg, tail immersion 10° C., 15-120 minutes after injection, FIG. 1”, the “reaction times of the rat treated with oxaliplatin after injection of riluzole” value is listed as “considerably higher”.
